Laboratory results reported in patent publication US20110301095A1.
These are yes or no findings as the source states them, for the method shown. In cells and extracts the contact can be indirect. Some results given as binding are weak or reduced against the parent protein; the word gives no strength.

Protein sequences, listed by entry. Tags and fused reporters are not part of them. Lines headed by an entry give the natural chain unless they say otherwise; changes in a name come on top. Chains listed by the source or under a name are the forms on record and can include a tag or linker.
UniProt Q09472: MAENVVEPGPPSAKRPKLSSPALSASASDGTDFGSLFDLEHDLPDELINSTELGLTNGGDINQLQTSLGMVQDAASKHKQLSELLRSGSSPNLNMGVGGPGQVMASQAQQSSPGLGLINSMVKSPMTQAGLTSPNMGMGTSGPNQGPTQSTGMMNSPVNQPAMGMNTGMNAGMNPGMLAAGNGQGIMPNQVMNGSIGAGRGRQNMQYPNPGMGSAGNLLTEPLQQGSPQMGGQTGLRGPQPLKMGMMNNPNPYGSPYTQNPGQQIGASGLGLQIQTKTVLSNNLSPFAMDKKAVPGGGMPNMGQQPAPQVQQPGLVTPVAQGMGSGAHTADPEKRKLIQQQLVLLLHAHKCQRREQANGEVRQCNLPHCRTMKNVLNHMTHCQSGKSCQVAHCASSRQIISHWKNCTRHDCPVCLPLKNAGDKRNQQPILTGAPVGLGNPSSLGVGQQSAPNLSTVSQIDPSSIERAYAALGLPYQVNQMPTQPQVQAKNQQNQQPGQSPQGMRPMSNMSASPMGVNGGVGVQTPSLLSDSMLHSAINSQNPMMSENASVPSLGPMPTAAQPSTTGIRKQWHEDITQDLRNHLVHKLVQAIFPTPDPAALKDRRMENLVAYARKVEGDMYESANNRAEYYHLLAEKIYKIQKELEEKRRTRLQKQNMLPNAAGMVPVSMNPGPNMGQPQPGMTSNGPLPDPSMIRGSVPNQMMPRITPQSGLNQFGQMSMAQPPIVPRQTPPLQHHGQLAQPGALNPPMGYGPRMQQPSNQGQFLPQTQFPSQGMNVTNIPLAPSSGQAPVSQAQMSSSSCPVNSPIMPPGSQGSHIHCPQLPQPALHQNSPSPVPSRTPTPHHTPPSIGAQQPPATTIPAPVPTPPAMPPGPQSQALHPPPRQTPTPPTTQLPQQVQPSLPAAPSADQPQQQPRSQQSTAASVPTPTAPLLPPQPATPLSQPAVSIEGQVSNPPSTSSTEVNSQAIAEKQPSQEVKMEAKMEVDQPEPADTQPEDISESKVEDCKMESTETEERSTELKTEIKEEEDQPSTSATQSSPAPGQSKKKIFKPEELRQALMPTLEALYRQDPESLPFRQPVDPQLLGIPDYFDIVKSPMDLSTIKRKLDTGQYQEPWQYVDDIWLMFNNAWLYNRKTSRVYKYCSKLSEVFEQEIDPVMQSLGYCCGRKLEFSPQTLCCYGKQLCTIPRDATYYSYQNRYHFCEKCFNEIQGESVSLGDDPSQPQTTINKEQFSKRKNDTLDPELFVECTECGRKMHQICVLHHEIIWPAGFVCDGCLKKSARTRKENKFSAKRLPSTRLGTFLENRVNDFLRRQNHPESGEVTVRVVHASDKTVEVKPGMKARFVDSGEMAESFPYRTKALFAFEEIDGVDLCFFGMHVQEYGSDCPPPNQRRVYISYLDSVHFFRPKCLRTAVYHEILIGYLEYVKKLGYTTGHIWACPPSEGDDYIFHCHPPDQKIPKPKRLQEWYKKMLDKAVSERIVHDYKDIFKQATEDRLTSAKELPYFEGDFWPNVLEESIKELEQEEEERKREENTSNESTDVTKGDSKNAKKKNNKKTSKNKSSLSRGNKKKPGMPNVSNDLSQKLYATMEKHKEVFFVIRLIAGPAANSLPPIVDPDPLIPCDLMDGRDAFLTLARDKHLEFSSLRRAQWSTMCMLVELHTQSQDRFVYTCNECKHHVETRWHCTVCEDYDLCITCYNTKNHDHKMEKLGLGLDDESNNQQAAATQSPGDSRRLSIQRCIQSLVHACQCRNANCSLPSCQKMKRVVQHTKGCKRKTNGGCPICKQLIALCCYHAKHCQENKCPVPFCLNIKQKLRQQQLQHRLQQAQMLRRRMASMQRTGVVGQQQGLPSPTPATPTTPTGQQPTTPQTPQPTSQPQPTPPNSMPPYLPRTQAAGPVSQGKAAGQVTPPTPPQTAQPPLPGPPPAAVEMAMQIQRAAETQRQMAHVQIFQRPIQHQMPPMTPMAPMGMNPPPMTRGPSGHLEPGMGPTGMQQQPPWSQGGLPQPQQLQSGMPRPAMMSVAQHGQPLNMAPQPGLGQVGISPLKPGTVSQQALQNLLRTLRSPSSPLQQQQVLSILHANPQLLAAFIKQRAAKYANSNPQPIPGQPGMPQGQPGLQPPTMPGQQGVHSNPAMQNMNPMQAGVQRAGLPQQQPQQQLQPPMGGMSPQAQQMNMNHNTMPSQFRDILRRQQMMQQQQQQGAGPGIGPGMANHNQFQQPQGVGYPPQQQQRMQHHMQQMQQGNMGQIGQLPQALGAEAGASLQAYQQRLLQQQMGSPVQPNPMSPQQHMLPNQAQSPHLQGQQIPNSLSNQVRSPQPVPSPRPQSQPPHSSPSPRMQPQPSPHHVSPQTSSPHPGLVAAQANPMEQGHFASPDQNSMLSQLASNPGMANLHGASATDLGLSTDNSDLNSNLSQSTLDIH
HIF-1α translated in vitro without tag (mouse HIF-1α in T vector) (Q61221, form named): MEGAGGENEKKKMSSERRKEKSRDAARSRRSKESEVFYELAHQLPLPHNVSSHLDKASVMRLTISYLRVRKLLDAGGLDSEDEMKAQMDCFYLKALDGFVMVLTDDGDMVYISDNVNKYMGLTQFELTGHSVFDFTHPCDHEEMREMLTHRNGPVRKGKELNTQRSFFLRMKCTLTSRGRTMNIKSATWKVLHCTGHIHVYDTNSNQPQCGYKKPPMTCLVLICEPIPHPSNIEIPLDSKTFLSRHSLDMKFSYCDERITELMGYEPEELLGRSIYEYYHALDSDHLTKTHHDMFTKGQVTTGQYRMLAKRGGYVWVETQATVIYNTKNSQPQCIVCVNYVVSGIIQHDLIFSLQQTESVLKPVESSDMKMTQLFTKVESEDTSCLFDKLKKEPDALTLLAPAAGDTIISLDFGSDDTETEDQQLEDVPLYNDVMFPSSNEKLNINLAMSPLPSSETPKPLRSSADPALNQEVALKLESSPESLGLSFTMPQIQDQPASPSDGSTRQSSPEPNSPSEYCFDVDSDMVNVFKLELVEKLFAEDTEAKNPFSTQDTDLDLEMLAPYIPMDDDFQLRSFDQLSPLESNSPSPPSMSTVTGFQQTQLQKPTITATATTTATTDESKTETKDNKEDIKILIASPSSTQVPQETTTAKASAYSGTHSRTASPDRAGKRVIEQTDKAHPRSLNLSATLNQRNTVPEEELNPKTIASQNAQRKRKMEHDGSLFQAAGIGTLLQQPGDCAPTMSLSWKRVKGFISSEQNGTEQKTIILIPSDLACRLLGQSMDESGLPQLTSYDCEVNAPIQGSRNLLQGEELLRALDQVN

Biological target: Flag-p300 (human) (UniProt Q09472)
Assay: in vitro pull-down of 35S-HIF-1α, with or without 35S-FoxA2, on M2 beads with Flag-p300 (FIG. 4K); binding increased by FoxA2

binding: binds
Substance: HIF-1α translated in vitro without tag (mouse HIF-1α in T vector) (from UniProt Q61221 1-822)
